For at least one compound, name, drawing or mass did not settle the structure.
System: hPSC-derived axial progenitors
Assay: Motor neuron (MN) subtype specification: immunostaining of embryoid bodies on day 14 of differentiation, proportion of MNs (ISL1+ cells) expressing HOX/FOXP1/SCIP markers
Format: cell-based, human
Method: Human PSC embryoid body-based differentiation was performed as previously described (Maury et al., 2015). hPSC were dissociated with cold Accutase (Life Technologies) for 3 to 5 min at 37° C. and resuspended in differentiation medium N2B27 (Advanced DMEM F12, Neurobasal vol:vol (Life Technologies)), supplemented with N2 (Life Technologies), B27 without Vitamin A (Life technologies), penicillin/streptomycin 1%, β-Mercaptoéthanol 0.1% (Life Technologies), with Y-27632 (10 μM, Stemgent or Stem Cell Technologies), CHIR-99021 (3 μM or 4 μM Selleckchem) SB431542 (20 μM, Selleckchem) and LDN 193189 (0.1 μM, Selleckchem). 2×10^5 cells ml^−1 were seeded in ultra-low attachment 6 well plates (Corning) to form embryoid bodies (EBs). All conditions of differentiation received the same medium at day 2 and at day 3 but SB431542 was removed at day 3. Then, the differentiation proceeded according to the schemas presented above the figures. […]
All statistics were computed using Graphpad Prism software. […] For each condition at least 4 independent EBs were imaged in which all the cells were quantified by automated image analysis. […] Quantitative analyses on images were performed using the CellProfiler software (Carpenter et al., 2006) (Broad Institute open source at www.cellprofiler.org). […] All images across conditions were then automatically analyzed in batch ensuring unbiased analysis. […]

With CC1=C(/C=C/C(C)=C/C=C/C(C)=C/C(=O)O)C(C)(C)CCC1 [RA, retinoic acid, reference compound] the “caudalization of MNs upon reduced duration of RA” value (D3 progenitors, RA D3-5, D3-8 versus D3-9) was “None of these shorter RA treatments promoted the birth of more caudal MNs” and the “rostro-caudal identity of MNs versus time of RA application” value (time of exposure to RA/SAG modulated, day 14) was “the more caudal MNs are”.
